Experiments:
[1] = Reactivity of PL13 free acid with 10 equivalents of tyrosine, histidine, lysine and N-acetyl cysteine at pH 7.0, RP-HPLC
[2] = Reactivity of PL13 free acid with 2 molar equivalents of N-acetyl cysteine, RP-HPLC; settings: 2 molar equivalents NAC, RT

SMILES: C=Cc1cc(C)nc(CCC(=O)O)c1 [PL13 free acid]
- conversion of PL13 free acid to PL13-NAC adduct ([1]; 10 molar excess of amino acid, pH 7.0, 4 hours, RT): 90%
- time until conversion to PL13-NAC adduct is fully complete ([1]; 10 molar excess of amino acid, pH 7.0, RT): < 18 h
- selectivity of reaction in the presence of Tyr, His and Lys ([1]; pH 7.0, 10 equivalents of each amino acid): reacted selectively with NAC
- reactivity with NAC at pH 7.5 compared with pH 7.0 and 8.0 ([2]; 24 hours): slower
- PL13 free acid converted to product (PL13-NAC adduct) ([2]; pH 8.0, 72 hours): ~70%
